Assay results: publication PMC4474612
These are yes or no findings as the source states them, for the method shown. Binding seen in cells or lysates may run through a third protein. Here binding means that the protein was enriched with, or labelled near, the bait; the list need not be complete. For some assays here: A no says only that the protein was not detected with the bait. For some assays here: Tags and fused reporters may be left off the sequences shown.

T1: PerR-SPA (Bacillus subtilis) (UniProt P71086)
T1 sequence: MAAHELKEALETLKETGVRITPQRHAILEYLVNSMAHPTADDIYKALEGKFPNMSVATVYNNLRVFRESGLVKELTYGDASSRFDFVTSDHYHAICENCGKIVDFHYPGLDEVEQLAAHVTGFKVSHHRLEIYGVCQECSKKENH

T2: SPA-MreB (MreB fused to the sequential peptide affinity tag) (Bacillus subtilis) (UniProt Q01465)
T2 sequence: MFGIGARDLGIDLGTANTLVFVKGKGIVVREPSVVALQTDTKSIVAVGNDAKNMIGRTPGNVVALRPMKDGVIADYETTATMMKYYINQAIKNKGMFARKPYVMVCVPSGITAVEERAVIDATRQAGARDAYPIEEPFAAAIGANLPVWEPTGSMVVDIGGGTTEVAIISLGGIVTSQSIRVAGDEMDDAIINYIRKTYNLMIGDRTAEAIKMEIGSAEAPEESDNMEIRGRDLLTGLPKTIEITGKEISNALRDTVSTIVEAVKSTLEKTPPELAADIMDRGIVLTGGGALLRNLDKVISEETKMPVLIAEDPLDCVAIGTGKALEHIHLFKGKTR

B1: ComC (protein, UniProt P15378 1-248)
chain: MLSILFIFGLILGSFYYTAGCRIPLHLSIIAPRSSCPFCRRTLTPAELIPILSFLFQKGKCKSCGHRISFMYPAAELVTACLFAAAGIRFGISLELFPAVVFISLLIIVAVTDIHFMLIPNRILIFFLPFLAAARLISPLDSWYAGLLGAAAGFLFLAVIAAITHGGVGGGDIKLFAVIGFVLGVKMLAAAFFFSVLIGALYGAAAVLTGRLAKRQPLPFAPAIAAGSILAYLYGDSIISFYIKMALG
B2: ComEB (protein, UniProt P32393 1-189)
chain: MERISWNQYFMAQSHLLALRSTCPRLSVGATIVRDKRMIAGGYNGSIAGGVHCADEGCLMIDDHCARTIHAEMNAILQCSKFGVPTDGAEIYVTHYPCIQCCKSIIQAGIKTVYYAEDYKTHPYAQELFEQAGVTVEQVELDEMIVDLKNREKLSFVAGLIGKLADAGLAEEELKKIHEQANTLFTSYV
B3: ComGA (protein, UniProt P25953 1-356)
chain: MDSIEKVSKNLIEEAYLTKASDIHIVPRERDAIIHFRVDHALLKKRDMKKEECVRLISHFKFLSAMDIGERRKPQNGSLTLKLKEGNVHLRMSTLPTINEESLVIRVMPQYNIPSIDKLSLFPKTGATLLSFLKHSHGMLIFTGPTGSGKTTTLYSLVQYAKKHFNRNIVTLEDPVETRDEDVLQVQVNEKAGVTYSAGLKAILRHDPDMIILGEIRDAETAEIAVRAAMTGHLVLTSLHTRDAKGAIYRLLEFGINMNEIEQTVIAIAAQRLVDLACPFCENGCSSVYCRQSRNTRRASVYELLYGKNLQQCIQEAKGNHANYQYQTLRQIIRKGIALGYLTTNNYDRWVYHEKD
B4: ComFA (protein, UniProt P39145 1-463)
chain: MNVPVEKNSSFSKELQQTLRSRHLLRTELSFSDEMIEWHIKNGYITAENSISINKRRYRCNRCGQTDQRYFSFYHSSGKNKLYCRSCVMMGRVSEEVPLYSWKEENESNWKSIKLTWDGKLSSGQQKAANVLIEAISKKEELLIWAVCGAGKTEMLFPGIESALNQGLRVCIATPRTDVVLELAPRLKAAFQGADISALYGGSDDKGRLSPLMISTTHQLLRYKDAIDVMIIDEVDAFPYSADQTLQFAVQKARKKNSTLVYLSATPPKELKRKALNGQLHSVRIPARHHRKPLPEPRFVWCGNWKKKLNRNKIPPAVKRWIEFHVKEGRPVFLFVPSVSILEKAAACFKGVHCRTASVHAEDKHRKEKVQQFRDGQLDLLITTTILERGVTVPKVQTGVLGAESSIFTESALVQIAGRTGRHKEYADGDVIYFHFGKTKSMLDARKHIKEMNELAAKVECTD
B5: Maf (protein, UniProt Q02169 1-189)
chain: MTKPLILASQSPRRKELLDLLQLPYSIIVSEVEEKLNRNFSPEENVQWLAKQKAKAVADLHPHAIVIGADTMVCLDGECLGKPQDQEEAASMLRRLSGRSHSVITAVSIQAENHSETFYDKTEVAFWSLSEEEIWTYIETKEPMDKAGAYGIQGRGALFVKKIDGDYYSVMGLPISKTMRALRHFDIRA

The binders below were run against T1, PerR-SPA (Bacillus subtilis) (assay: affinity purification with mass spectrometry; SPA-tag purification from B. subtilis cells grown to T2 in competence medium with 0.4% xylose; cryogenic grinding; buffer A (Tris-HCl pH 7,5 10 mM, NaCl 150 mM, EDTA 0,2 mM, Triton 0,1 mM, protease inhibitors); eluted proteins quantified by LC-MS/MS in 3 independent experiments; controls: no SPA-tagged protein (NC60) and PerR-SPA (NC135)).

Row | binding | Binder
1 | no binding | B1
2 | no binding | B2
3 | no binding | B3
4 | no binding | B4

The binders below were run against T2, SPA-MreB (MreB fused to the sequential peptide affinity tag) (Bacillus subtilis) in the same assay as above.

Row | binding | Binder
5 | binds | B5
6 | binds | B1
7 | binds | B2
8 | binds | B4
